Results: PubChem BioAssay AID2002 (Broad Institute, 2009)
The list shows a part of the results. Results with a measured potency or affinity are listed apart. Entries without a call are filed as inconclusive in the source.

Assay: PubChem AID 2002
Settings: H4 neuroglioma luciferase reporter, luminescence activation; at 12 µM (top of the series) unless noted

Compound | activation
Cc1cc(C)nc(SC2=CS(=O)(=O)c3ccccc32)n1 | 57.5%
CC(/C=N/NC(=O)c1cccc(F)c1)=C\c1ccccc1 | 144%
Fc1ccc2nc(Nc3nc4c(s3)CCCC4)sc2c1 | 159%
FC(F)Oc1ccc(C2N=C(c3ccccc3)NO2)cc1 (stereo unspecified) | 136%
O=C(Nc1ccc(-c2nc3ccccc3s2)c(OC(=O)c2ccccc2)c1)c1ccccc1 | 111%
O=C(Nc1ccccc1)C(=O)Nc1ccc2c(c1)N(C(=O)C1CC1)CCC2 | 48.3%
O=C(NC1CCCCC1)C(=S)NC1CCCCC1 | 127%
O=C(NCCS(=O)(=O)NCCc1ccccc1)c1ccc2c(c1)OCO2 | 80.5%
Oc1ccc(/C=N/Nc2cccc3cccnc23)c(O)c1 | 157%
COc1cc2ccccc2cc1C(=O)Nc1ccc(N2CCN(C)CC2)cc1 | 66%
C[C@@H]1C[C@@H]2O[C@H]2/C=C\C=C\C(=O)Cc2c(Cl)c(O)cc(O)c2C(=O)O1 | 51.1% [at 6 µM]
Cc1c(-c2nc(-c3ccc(C(F)(F)F)cc3)no2)n(C)oc1=O | 91%
Cc1csc2nc(CSc3nc4ccccc4o3)c(Br)n12 | 138% [at 6 µM]
CCOC(=O)c1sc2nc(NC(=O)C(C)(C)C)sc2c1C | 167% [at 3 µM]
CCCCNc1ncnc2c1cnn2-c1ccccc1 | 42.5%
O=[N+]([O-])c1nn(-c2ccc3c(c2)OCCO3)n(O)c1=NCCC1=CCCCC1 | 119%

Some values from the list:
activation, O=C(NCCS(=O)(=O)NCCc1ccccc1)c1ccc2c(c1)OCO2 reads 80.5%
activation, COc1cc2ccccc2cc1C(=O)Nc1ccc(N2CCN(C)CC2)cc1 reads 66%

More compounds.

Compound | activation
Cc1ccc(-n2c(C)cc(C(=O)CSc3nncs3)c2C)cc1 | 62.6%
Cc1c(-c2nc(N)nc(Nc3ccccc3F)n2)oc2ccccc12 | 79.5%
c1ccc(C2=NNC(c3ccccn3)=NN2)nc1 | -4.6%
C/C(=N\Nc1nc2c(s1)CCCC2)c1ccccc1 | 71%
Nc1nc(-c2sc3nc4c(cc3c2N)CCCC4)nc(N2CCOCC2)n1 | 125%
O=C(O)c1ccc(N/N=C/c2cn(Cc3ccc(F)cc3)c3ccccc23)cc1 | 51.1%
COc1ccc(CCNC(=O)c2ccc3c(c2)OCCO3)cc1 | 109%
Nc1nc(NC(=O)c2cccs2)nn1-c1ccccc1 | 80.1%
O=C(N/N=C/c1cc(Br)cs1)c1ccc2c(c1)OCCO2 | 87.7% [at 3 µM]
Cc1ccc(S(=O)(=O)c2cc3ccccc3oc2=O)cc1 | 24.7%
CC(C)N=C1NN=C(c2ccc(Cl)c(Cl)c2)CS1 | 61.4%
COc1cc2sc3ccc(-c4ccc5[nH]ccc5c4)cc3c(=O)c2cc1OC | 165%
O=C(Nc1ccc2cn[nH]c2c1)c1ccccc1F | 116%
Cc1ccc(-c2nc(N/N=C/c3ccccc3[N+](=O)[O-])c3ccccc3n2)cc1 | 108%
Cc1cc(C(=O)COC(=O)C2=COCCO2)c(C)n1-c1cccc(F)c1 | 31.7%
